Results as given in US20220273703A1, “NRF2 ACTIVATION FOR TREATMENT OF NEPHROGENIC DIABETES INSIPIDUS” (University Of Pittsburgh-Of The Commonwealth System Of …, priority 2019, published 2022).
At least one compound was matched to its structure with a doubt left.

Tested on: Nrf2
Test: CDDO-Me in the Li-NDI mouse model
Type: in vivo, mice
Procedure: FIGS. 9A-9J. Pharmacologic activation of Nrf2 using CDDO-Me protects against polydipsia in Li-NDI via an AQP2-independent mechanism. (A) Schematic of model of Li-NDI. All mice received normal chow for 0-3d and were randomized to vehicle or CDDO-Me (5 mg/kg I.P., q.d.). At day 3, mice were randomized to either normal chow or 0.17% LiC1 diet. (B) Animal weights as a function of time, normalized to starting weight. (C) 24 hr food intake normalized to body weight. (D) Changes in water intake as a % of baseline expressed as mean±SE (n=6-8 per group). *(p<0.05) denotes statistical significance compared to LiC1-Vehicle by two-way ANOVA with Dunnet correction for multiple comparisons. (E) Immunoblotting of whole-kidney lysates for glycosylated ( ? , 45 kDa) and non-glycosylated ( ? , 29 kDa) AQP2 and NQO1; (F-H) Densitometry showing individual values, mean±SE with statistical analysis by one-way ANOVA with Tukey correction for multiple comparisons. (I) Plasma Li concentration. (J) Spot urine osmolality at day 10. Each point represents one animal in the study. Statistical significance by two-way ANOVA with Dunnet correction for multiple comparisons.
Water and Urine: Mice and food were weighed daily. Water was supplied in 50 mL conical with sipper tube as described (bio-protocol.org/e1822), and daily water intake was determined by weight. Spot urine was collected after spontaneous voiding on plastic wrap and urine osmolality measured in technical duplicate with Wescor 5500® Vapor Pressure Osmometer using lOuL urine and the average value reported each mouse.
Immunoblotting: Flash-frozen kidneys were homogenized in ice-cold Radio Immuno Precipitation Assay (RIPA) buffer containing protease and phosphatase inhibitor cocktails. Cells were treated as indicated. At time of collection, cells were washed 2× with cold PBS and lysates were prepared in 4° C. lysis buffer containing protease inhibitors. Protein was quantified by bicinchoninic acid (BCA) assay (Pierce) and sample containing 15-25 μg total cellular protein was loaded on 4-12% reducing Bis-Tris gel. Resolved proteins were transferred to 0.45 μm nitrocellulose membrane, blocked with 5% non-fat dry milk or 5% bovine serum albumin in TRIS® buffered saline (TBS)-0.1% Tween 20 for 1 hr. Membranes were incubated with primary antibody (1:1000 dilution) for 1 hr at room temperature or overnight at 4° C. Appropriate secondary antibody was applied at dilution of 1:5000 for 1 hr, membrane washed thrice in TBS-0.1% Tween-20 and membrane visualized with Clarity ECL chemiluminescence kit and ChemiDoc imager (Bio-Rad, Hercules, Calif.).
The strong protective effect of genetic Nrf2 activation in Li-NDI motivated evaluation of the viability of pharmacologic Nrf2 activation as a therapeutic intervention. […]

## COC(=O)[C@]12CCC(C)(C)C[C@H]1[C@H]1C(=O)C=C3[C@@]4(C)C=C(C#N)C(=O)C(C)(C)[C@@H]4CC[C@@]3(C)[C@]1(C)CC2 [CDDO-Me, Bardoxolone methyl]
5 mg/kg I.P., q.d., from 3 days prior to and throughout 0.17% LiCl diet
  water intake: significantly reduced
5 mg/kg I.P., q.d., with LiCl diet
  weight loss: protected against weight loss
5 mg/kg I.P., q.d., with LiCl diet, whole-kidney lysates
  AQP2 abundance and glycosylation: not improved
Spot urine at day 10
  urine osmolality: only marginal improvement
